No constants are given. Whether binding was seen depends on the method and setting. Some results given as binding are weak or reduced against the parent protein; the word gives no strength.
What was measured:
[1] = biological target: C-terminal domain of focal adhesion kinase (FAK-CD), baculoviral (human) (UniProt Q05397); assay: phage display
[2] = biological target: C-terminal domain of focal adhesion kinase (FAK-CD), baculoviral (human) (UniProt Q05397); assay: phage display; Western blot and phage overlay (FIG. 2)
[3] = biological target: C-terminal domain of focal adhesion kinase (FAK-CD), baculoviral (human) (UniProt Q05397); assay: Western blots/phage overlays (FIG. 2)
[4] = biological target: C-terminal domain of focal adhesion kinase (FAK-CD), baculoviral (human) (UniProt Q05397); assay: phage display, baculoviral FAK-CD coated to a plate

Chains of the proteins cited; added tags and fusions are not shown. Residues count along the entry.
UniProt Q05397, residues 693-1052: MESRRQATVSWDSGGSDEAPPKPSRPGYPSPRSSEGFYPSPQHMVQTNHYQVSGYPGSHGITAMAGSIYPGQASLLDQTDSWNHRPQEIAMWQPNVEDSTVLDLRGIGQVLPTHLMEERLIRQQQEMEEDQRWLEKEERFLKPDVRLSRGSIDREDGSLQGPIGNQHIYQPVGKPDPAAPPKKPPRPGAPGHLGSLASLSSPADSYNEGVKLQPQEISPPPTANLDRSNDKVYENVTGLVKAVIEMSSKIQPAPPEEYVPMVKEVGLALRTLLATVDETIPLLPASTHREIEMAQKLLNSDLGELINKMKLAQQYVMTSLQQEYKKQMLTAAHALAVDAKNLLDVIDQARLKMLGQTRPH

Measured: binding

WHWQWTPWSIQP [Peptide-35 (…; SEQ ID NO: 1)]
binds: all assays above
